# Test results published in article PMC6457570.
# By UniProt entry, the sequences of proteins in these tests, tags left out.
# UniProt Q91DS3: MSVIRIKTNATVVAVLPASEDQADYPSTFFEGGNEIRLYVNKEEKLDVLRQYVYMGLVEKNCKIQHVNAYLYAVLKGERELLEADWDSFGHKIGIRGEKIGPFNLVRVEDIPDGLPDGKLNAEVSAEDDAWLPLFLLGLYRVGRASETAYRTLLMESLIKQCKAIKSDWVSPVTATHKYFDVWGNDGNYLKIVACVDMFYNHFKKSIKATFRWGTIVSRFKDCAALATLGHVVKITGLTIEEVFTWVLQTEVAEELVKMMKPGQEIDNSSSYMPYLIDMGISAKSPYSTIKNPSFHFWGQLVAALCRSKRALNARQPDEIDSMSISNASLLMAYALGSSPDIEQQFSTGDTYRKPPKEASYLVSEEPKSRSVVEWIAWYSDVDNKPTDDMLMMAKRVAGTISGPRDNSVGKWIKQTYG
# Results are given in words; binding and its absence hold for the method and conditions named. In cells and extracts the contact can be indirect. Some entries that bind do so weakly or less than the wild type. Tags and fused reporters may be left off the sequences shown.
# T1: SVCV P protein with Flag tag (P-Flag) (spring viraemia of carp virus (SVCV)) (UniProt Q91DS2)
# T1 sequence: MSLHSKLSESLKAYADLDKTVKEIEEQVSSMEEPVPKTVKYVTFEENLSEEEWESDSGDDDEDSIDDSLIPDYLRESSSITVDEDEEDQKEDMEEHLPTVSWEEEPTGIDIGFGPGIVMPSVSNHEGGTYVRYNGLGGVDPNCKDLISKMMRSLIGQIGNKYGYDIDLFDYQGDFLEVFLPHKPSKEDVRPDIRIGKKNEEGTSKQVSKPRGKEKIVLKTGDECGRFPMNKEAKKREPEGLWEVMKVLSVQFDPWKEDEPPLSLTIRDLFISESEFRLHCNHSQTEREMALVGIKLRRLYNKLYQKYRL
# What was measured:
# [1] = molecular target: T1, SVCV P protein with Flag tag (P-Flag) (spring viraemia of carp virus (SVCV)); test: co-IP; HEK 293T cells co-transfected (5 ug each plasmid), lysed after 24 h in RIPA buffer (1% NP-40, 50 mM Tris-HCl pH 7.5, 150 mM NaCl, 1 mM EDTA, 0.25% sodium deoxycholate); IP with anti-Flag affinity gel overnight at 4°C; immunoblot with anti-Myc
# [2] = molecular target: SVCV N protein with Flag tag (N-Flag) (spring viraemia of carp virus (SVCV)) (UniProt Q91DS3); test: as above
binder,measurement,setting,value
"zebrafish p53 with a Myc tag (p53-Myc) (protein, UniProt P79734 1-373) MAQNDSQEFAELWEKNLIIQPPGGGSCWDIINDEEYLPGSFDPNFFENVLEEQPQPSTLPPTSTVPETSDYPGDHGFRLRFPQSGTAKSVTCTYSPDLNKLFCQLAKTCPVQMVVDVAPPQGSVVRATAIYKKSEHVAEVVRRCPHHERTPDGDNLAPAGHLIRVEGNQRANYREDNITLRHSVFVPYEAPQLGAEWTTVLLNYMCNSSCMGGMNRRPILTIITLETQEGQLLGRRSFEVRVCACPGRDRKTEESNFKKDQETKTMAKTTTGTKRSLVKESSSATLRPEGSKKAKGSSSDEEIFTLQVRGRERYEILKKLNDSLELSDVVPASDAEKYRQKFMTKNKKENRESSEPKQGKKLMVKDEGRSDSD",binding,[1],binds
same,binding,[2],binds
